Test results as given in patent US20030226169A1, “DNA sequences encoding antifungal proteins” (priority 1995, published 2003).
Some results were stated once for a whole list of compounds, not compound by compound. Residues, ends and D or L forms follow the SMILES beside them.

Test system: Fusarium culmorum (IMI 180420)
Experiment: Antifungal growth inhibition microplate assay (photospectrometry)
Assay type: cell-based
Settings: for effect of added salts on antifungal activity: 15-mer peptides, KCl / CaCl2 at all concentrations tested; for IC50 value (category): Rs-AFP2-based 15-mer peptides, categories of FIG. 6 and FIG. 8
Method: The following fungal strains were used: Alternaria brassicicola (MUCL 20297), Ascophyta pisi (MUCL 30164), Botrytis cinerea (MUCL 30158), Fusarium culmorum (IMI 180420) and Verticillium dahliae (MUCL 19210).
Fungi were grown on six cereal agar plates at room temperature and under white fluorescent light except for F culmorum and V dahliae which were grown in the dark. The duration of the spore harvest varied between 10 and 25 days depending on the strain. Spores were collected as follows. Five to ten ml of sterile milli-Q water was poured into each dish and the surface of the agar was rubbed with a sterile spatula to obtain a suspension containing mycelium and spores. This suspension was filtered through a sterile glasswool-plugged funnel and the filtrate containing the spores was collected in a sterile polypropylene centrifuge tube. The A brassicicola spores were suspended in sterile 0.1 Tween 20 (Merk, 822184) due to their hydrophobic nature. The spore suspensions were then washed twice by centrifugation at 2,400×g for 15 minutes and resuspended in a small volume of steril milli-Q water. The spore density was determined in a counting chamber and then adjusted to 4×10^7 spores per ml. Aliquots of the spore suspension were transferred to sterile microtubes and an equal volume of sterile 50% glycerol (Merck, 4091) was added to each tube so that a final spore suspension of 2×10^7 spores per ml in 25% glycerol was obtained. After careful mixing of the stock, the spore suspension was transferred in 100 μl aliquots to sterile microtubes and stored at −80° C.
Antifungal activity was measured by photospectrometry as described by Broekaert et al, (1990, FEMS Microbiol Lett, 69:55-60). Tests were performed by adding 20 μl of test solution and 80 μl of a fungal spore suspension (2×10^4 spores/ml) per well in a sterile flat-bottom 96-well microtiterplate. The spore suspension was prepared by diluting the stock spore suspension ([…] in 25% glycerol) 1:1000 in half-strength potato dextrose broth. A positive growth control consisting of eight wells containing 20 μl of sterile milli-Q water and 80 μl of the fungal spore suspension was included in each test. The microtiterplates were incubated (with the lid on) in an aerated place at room temperature and under conditions of darkness for all test organisms.
After 30 minutes of incubation (when the spores are settled on the well bottom) the optical density was measured in a microplate reader (Bio Rad 3550-UV) at 595 nm. Incubation of the microtiterplates continued until the optical density of the control microculture was between 0.250 and 0.500, which took approximately 72 hours (96 hours for V dahliae). Percentage of growth inhibition (% GI) was estimated as 100 times the ratio of the corrected absorbance of the control microculture minus the corrected absorbance of the test microculture over the corrected absorbance of the control microculture at 595 nm. The corrected absorbance values equal the absorbance at 595 nm of the culture measured after 72 or 96 hours minus the absorbance at 595 nm measured after 30 minutes.
% GI=[(Acontrol−Atest/Acontrol]×100
where Acontrol=(A72/96h−A30min)control
The IC50 value is defined as the concentration that gives a 50% growth inhibition after 72 or 96 hours of incubation. The minimum inhibitory concentration (MIC) corresponds to the minimum concentration that gives 100% growth inhibition after 72 or 96 hours incubation.

Row | Compound | effect of added salts on antifungal activity (½ PDB) | IC50 value (category) | other results
1 | CC[C@H](C)[C@H](NC(=O)[C@H](CS)NC(=O)[C@H](CCCCN)NC(=O)[C@H](Cc1c[nH]cn1)NC(=O)[C@H](C)NC(=O)[C@@H]1CCCN1C(=O)[C@H](Cc1ccccc1)NC(=O)[C@@H](NC(=O)[C@H](Cc1ccc(O)cc1)NC(=O)[C@H](CC(N)=O)NC(C)=O)C(C)C)C(=O)N[C@@H](CS)C(=O)N[C@@H](Cc1ccc(O)cc1)C(=O)N[C@@H](Cc1ccccc1)C(=O)N1CCC[C@H]1C(=O)N[C@@H](CS)C(N)=O [Peptide 10 (Rs-AFP2 15-mer)] (Ac-NYVFPAHKCICYFPC-NH2; N-terminus and C-terminus assumed) | nearly complete loss of the antifungal activity |  | 
2 | CC(=O)N[C@@H](Cc1c[nH]cn1)C(=O)NCC(=O)N[C@@H](CO)C(=O)N[C@@H](CS)C(=O)N[C@@H](CC(N)=O)C(=O)N[C@@H](Cc1ccc(O)cc1)C(=O)N[C@H](C(=O)N[C@@H](Cc1ccccc1)C(=O)N1CCC[C@H]1C(=O)N[C@@H](C)C(=O)N[C@@H](Cc1c[nH]cn1)C(=O)N[C@@H](CCCCN)C(N)=O)C(C)C [Peptide 33] (Ac-HGSCNYVFPAHK-NH2) |  |  | IC50 (Table 4 / FIG. 6: Rs-AFP2-based 12-mer split peptides, ½ PDB, the source numbers peptides by N-terminal amino acid): less than 100 μg/ml
3 | CC(=O)N[C@@H](CCC(N)=O)C(=O)N[C@@H](CCCCN)C(=O)N[C@@H](CC(C)C)C(=O)N[C@@H](CS)C(=O)N[C@@H](CCC(N)=O)C(=O)N[C@@H](CCCNC(=N)N)C(=O)N1CCC[C@H]1C(=O)N[C@@H](CO)C(=O)NCC(=O)N[C@H](C(=O)N[C@@H](Cc1c[nH]c2ccccc12)C(=O)N[C@@H](CO)C(=O)NCC(=O)N[C@H](C(=O)N[C@@H](CS)C(N)=O)C(C)C)[C@@H](C)O [Peptide 1 (Rs-AFP2 15-mer)] (Ac-QKLCQRPSGTWSGVC-NH2; N-terminus and C-terminus assumed) | nearly complete loss of the antifungal activity |  | 
4 | CC(=O)N[C@@H](CCC(=O)O)C(=O)N[C@@H](CCCCN)C(=O)N[C@@H](C)C(=O)N[C@@H](CCCNC(=N)N)C(=O)N[C@@H](Cc1c[nH]cn1)C(=O)NCC(=O)N[C@@H](CO)C(=O)N[C@@H](CS)C(=O)N[C@@H](CC(N)=O)C(=O)N[C@@H](Cc1ccc(O)cc1)C(=O)N[C@H](C(=O)N[C@@H](Cc1ccccc1)C(=O)N1CCC[C@H]1C(=O)N[C@@H](C)C(=O)N[C@@H](Cc1c[nH]cn1)C(N)=O)C(C)C [Peptide 8 (Rs-AFP2 15-mer)] |  | less than 100 μg/ml | 
5 | CC[C@H](C)[C@H](NC(=O)[C@H](CS)NC(=O)[C@H](CCCCN)NC(=O)[C@H](Cc1c[nH]cn1)NC(=O)[C@H](C)NC(=O)[C@@H]1CCCN1C(=O)[C@H](Cc1ccccc1)NC(=O)[C@@H](NC(=O)[C@H](Cc1ccc(O)cc1)NC(=O)[C@H](CC(N)=O)NC(=O)[C@H](CS)NC(=O)[C@H](CO)NC(=O)CNC(=O)[C@H](Cc1c[nH]cn1)NC(C)=O)C(C)C)C(=O)N[C@@H](CS)C(N)=O [Peptide 9 (Rs-AFP2 15-mer), HGSCNYVFPAHKCIC] (Ac-HGSCNYVFPAHKCIC-NH2; N-terminus and C-terminus assumed) |  | less than 100 μg/ml | 
6 | CC(=O)N[C@@H](CCC(=O)O)C(=O)N[C@@H](CCCCN)C(=O)N[C@@H](C)C(=O)N[C@@H](CCCNC(=N)N)C(=O)N[C@@H](Cc1c[nH]cn1)C(=O)NCC(=O)N[C@@H](CO)C(=O)N[C@@H](CS)C(=O)N[C@@H](CC(N)=O)C(=O)N[C@@H](Cc1ccc(O)cc1)C(=O)N[C@H](C(=O)N[C@@H](Cc1ccccc1)C(N)=O)C(C)C [Peptide 29] (Ac-EKARHGSCNYVF-NH2) |  |  | F CULMORUM IC50 (Table 7 / FIG. 8: Rs-AFP1-based 12-mer split peptides, ½ PDB, the source numbers peptides by N-terminal amino acid): less than 100 μg/ml
7 | CC[C@H](C)[C@H](NC(=O)[C@H](CS)NC(C)=O)C(=O)N[C@@H](CCCNC(=N)N)C(=O)N[C@@H](CC(C)C)C(=O)N[C@@H](CCC(=O)O)C(=O)N[C@@H](CCCCN)C(=O)N[C@@H](C)C(=O)N[C@@H](CCCNC(=N)N)C(=O)N[C@@H](Cc1c[nH]cn1)C(=O)NCC(=O)N[C@@H](CO)C(=O)N[C@@H](CS)C(=O)N[C@@H](CC(N)=O)C(=O)N[C@@H](Cc1ccc(O)cc1)C(=O)N[C@H](C(N)=O)C(C)C [Peptide 7 (Rs-AFP2 15-mer), CIRLEKARHGSCNYV] (Ac-CIRLEKARHGSCNYV-NH2; N-terminus and C-terminus assumed) |  | less than 100 μg/ml | 
8 | CC[C@H](C)[C@H](NC(=O)[C@H](CS)NC(=O)[C@H](CCCCN)NC(=O)[C@H](Cc1c[nH]cn1)NC(=O)[C@H](C)NC(=O)[C@@H]1CCCN1C(C)=O)C(=O)N[C@@H](CS)C(=O)N[C@@H](Cc1ccc(O)cc1)C(=O)N[C@@H](Cc1ccccc1)C(N)=O [Peptide 41] (Ac-PAHKCICYF-NH2) |  |  | IC50 (Table 3 / FIG. 6: Rs-AFP2-based 9-mer split peptides, ½ PDB, the source numbers peptides by N-terminal amino acid): less than 100 μg/ml; F CULMORUM IC (Table 6 / FIG. 8: Rs-AFP1-based 9-mer split peptides, ½ PDB, the source numbers peptides by N-terminal amino acid): less than 100 μg/ml
9 | Ac-QRPSGTWSGVCGNNN-NH2 (N-terminus and C-terminus assumed) [Peptide 2 (Rs-AFP2 15-mer)] | nearly complete loss of the antifungal activity |  | 
10 | CC(=O)NCC(=O)N[C@H](C(=O)N[C@@H](Cc1c[nH]c2ccccc12)C(=O)N[C@@H](CO)C(=O)NCC(=O)N[C@H](C(=O)N[C@@H](CS)C(=O)NCC(=O)N[C@@H](CC(N)=O)C(=O)N[C@@H](CC(N)=O)C(=O)N[C@@H](CC(N)=O)C(=O)N[C@@H](C)C(=O)N[C@@H](CS)C(=O)N[C@@H](CCCCN)C(=O)N[C@@H](CC(N)=O)C(N)=O)C(C)C)[C@@H](C)O [Peptide 3 (Rs-AFP2 15-mer)] (Ac-GTWSGVCGNNNACKN-NH2; N-terminus and C-terminus assumed) | nearly complete loss of the antifungal activity |  | 
11 | CC[C@H](C)[C@H](NC(=O)[C@H](CS)NC(=O)[C@H](CCC(N)=O)NC(=O)[C@H](CC(N)=O)NC(=O)[C@H](CCCCN)NC(=O)[C@H](CS)NC(=O)[C@H](C)NC(=O)[C@H](CC(N)=O)NC(=O)[C@H](CC(N)=O)NC(=O)[C@H](CC(N)=O)NC(=O)CNC(=O)[C@H](CS)NC(=O)[C@@H](NC(=O)CNC(C)=O)C(C)C)C(=O)N[C@@H](CCCNC(=N)N)C(N)=O [Peptide 4 (Rs-AFP2 15-mer)] (Ac-GVCGNNNACKNQCIR-NH2; N-terminus and C-terminus assumed) | nearly complete loss of the antifungal activity |  | 
12 | CC[C@H](C)[C@H](NC(=O)[C@H](CS)NC(=O)[C@H](CCC(N)=O)NC(=O)[C@H](CC(N)=O)NC(=O)[C@H](CCCCN)NC(=O)[C@H](CS)NC(C)=O)C(=O)N[C@@H](CCCNC(=N)N)C(=O)N[C@@H](CC(C)C)C(=O)N[C@@H](CCC(=O)O)C(=O)N[C@@H](CCCCN)C(=O)N[C@@H](C)C(=O)N[C@@H](CCCNC(=N)N)C(=O)N[C@@H](Cc1c[nH]cn1)C(=O)NCC(=O)N[C@@H](CO)C(N)=O [Peptide 6 (Rs-AFP2 15-mer), CKNQCIRLEKARHGS] (Ac-CKNQCIRLEKARHGS-NH2; N-terminus and C-terminus assumed) |  | less than 100 μg/ml | 
13 | CC[C@H](C)[C@H](NC(=O)[C@H](CS)NC(=O)[C@H](CCC(N)=O)NC(=O)[C@H](CC(N)=O)NC(=O)[C@H](CCCCN)NC(=O)[C@H](CS)NC(=O)[C@H](C)NC(=O)[C@H](CC(N)=O)NC(=O)[C@H](CC(N)=O)NC(=O)[C@H](CC(N)=O)NC(C)=O)C(=O)N[C@@H](CCCNC(=N)N)C(=O)N[C@@H](CC(C)C)C(=O)N[C@@H](CCC(=O)O)C(=O)N[C@@H](CCCCN)C(=O)N[C@@H](C)C(N)=O [Peptide 5 (Rs-AFP2 15-mer)] (Ac-NNNACKNQCIRLEKA-NH2; N-terminus and C-terminus assumed) | nearly complete loss of the antifungal activity |  | 
